Measurements from PMC8587416.
These are yes or no findings as the source states them, for the method shown. Binding seen in cells or lysates may run through a third protein. Binding can be weak; no strength is given. For some assays here: Tags and fused reporters may be left off the sequences shown. Values belong to the binder of their own block, whether it stands above or below them.

Key:
[1] = target: β-tubulin (human (endogenous in MDA-MB-231)); assay: FRET or BRET; immunofluorescence staining of fixed MDA-MB-231 cells (HAS3-overexpressing against vector control) with antibodies to HAS3 and β-tubulin and FITC/rhodamine secondary antibodies; FRET analysis under a confocal microscope
[2] = target: α-tubulin-AmCyan (from the plasmid α-tubulin-AmCyan-pcDNA3.1); assay: FRET or BRET; FLIM-FRET in live MDA-MB-231 cells co-transfected with α-tubulin-AmCyan (donor) and HAS3-EYFP or EYFP (acceptor); donor lifetime collected every 30 min for 10 h; 37 °C, 5% CO2

binding [1]: binds
B1: hyaluronic acid synthase 3 (HAS3), overexpressed in MDA-MB-231 cells (enzyme, UniProt O00219 1-553)
chain: MPVQLTTALRVVGTSLFALAVLGGILAAYVTGYQFIHTEKHYLSFGLYGAILGLHLLIQSLFAFLEHRRMRRAGQALKLPSPRRGSVALCIAAYQEDPDYLRKCLRSAQRISFPDLKVVMVVDGNRQEDAYMLDIFHEVLGGTEQAGFFVWRSNFHEAGEGETEASLQEGMDRVRDVVRASTFSCIMQKWGGKREVMYTAFKALGDSVDYIQVCDSDTVLDPACTIEMLRVLEEDPQVGGVGGDVQILNKYDSWISFLSSVRYWMAFNVERACQSYFGCVQCISGPLGMYRNSLLQQFLEDWYHQKFLGSKCSFGDDRHLTNRVLSLGYRTKYTARSKCLTETPTKYLRWLNQQTRWSKSYFREWLYNSLWFHKHHLWMTYESVVTGFFPFFLIATVIQLFYRGRIWNILLFLLTVQLVGIIKATYACFLRGNAEMIFMSLYSLLYMSSLLPAKIFAIATINKSGWGTSGRKTIVVNFIGLIPVSIWVAVLLGGLAYTAYCQDLFSETELAFLVSGAILYGCYWVALLMLYLAIIARRCGKKPEQYSLAFAEV

binding [2]: binds
B2: HAS3-EYFP (from the plasmid HAS3-EYFP-pcDNA3.1) (enzyme, UniProt O00219 1-553)
chain: B1 chain
